From patent US10221420B2, “Aptamer construct” (priority 2014, dated 2019)
pKd: −log10 of the molar value. Where cells or extracts were used, other partners may take part. Where a protein sequence is shown, tags need not be part of it.

Molecular target: T1, CD133 (prominin-1) (UniProt O43490)
T1 sequence (looked up, limits assumed): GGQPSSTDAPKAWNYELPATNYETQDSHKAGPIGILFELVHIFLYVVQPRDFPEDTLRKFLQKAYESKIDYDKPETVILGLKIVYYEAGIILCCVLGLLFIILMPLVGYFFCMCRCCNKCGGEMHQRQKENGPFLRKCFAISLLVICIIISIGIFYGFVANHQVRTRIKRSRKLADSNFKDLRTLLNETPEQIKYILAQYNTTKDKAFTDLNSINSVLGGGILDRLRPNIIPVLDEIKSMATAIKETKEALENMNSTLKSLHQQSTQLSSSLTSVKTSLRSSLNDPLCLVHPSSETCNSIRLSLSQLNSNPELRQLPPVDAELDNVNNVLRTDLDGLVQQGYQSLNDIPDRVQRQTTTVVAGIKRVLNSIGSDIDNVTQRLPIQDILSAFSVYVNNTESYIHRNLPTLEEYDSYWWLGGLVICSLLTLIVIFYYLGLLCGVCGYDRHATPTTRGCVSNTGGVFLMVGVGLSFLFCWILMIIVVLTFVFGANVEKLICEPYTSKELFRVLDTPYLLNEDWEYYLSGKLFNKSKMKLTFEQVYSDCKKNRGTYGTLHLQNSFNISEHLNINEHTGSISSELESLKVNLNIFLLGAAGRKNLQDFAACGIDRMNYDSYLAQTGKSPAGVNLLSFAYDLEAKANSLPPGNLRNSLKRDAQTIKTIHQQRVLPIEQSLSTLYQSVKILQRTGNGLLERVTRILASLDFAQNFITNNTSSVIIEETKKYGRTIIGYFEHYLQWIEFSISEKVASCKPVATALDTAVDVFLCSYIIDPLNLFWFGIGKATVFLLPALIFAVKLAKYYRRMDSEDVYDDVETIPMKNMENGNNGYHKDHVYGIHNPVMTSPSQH
Assay: flow cytometry
Details: 2'-OMe instead of 2'-F in loop; otherwise identical sequence; doxorubicin intercalated in stem; HT29 cells per text (figure legend says HEK293), 50 mM NaCl, 2.5 mM MgCl2, on ice 1 h; protein on the cell surface; label: …

Sequence: CGCGCGCCGCACGUAUACUAUGCGGCGCGCG [negative control aptamer-Dox conjugate]
- pKd: < 6.00
